# PubChem BioAssay AID2685 (National Center for Advancing Translational Sciences (NCATS), 2010)
# Screen size: about 320,000 compounds; about 2,100 (0.66%) were called active. Inconclusive means that the source gave no clear call. Such entries were picked first, then a sample of the others. Calls follow the shape of the dose curve; as a rule, active = well fitted inhibition curve with a large enough effect in the signal ratio, with a control signal flat (not every such curve was filed as active); inconclusive = small, poorly fitted or top-dose-only effect, or effect the other way, or a change in a side signal; inactive = flat fitted curve, though single readings scatter; the % refers to the signal ratio. Where the call is inconclusive, the potency comes from a doubtful curve fit.
# Assay: qHTS Assay for Lipid Storage Modulators in Drosophila S3 Cells
# Details: BODIPY lipid droplet fluorescence, 18-24 h, cells fed with added oleic acid; lipid storage change, negative = inhibition: at 46.1 µM (top of the series) unless noted
# How it was run: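 Laser-scanning cytometry quantifies lipid droplet accumulation (500–530 nm total intensity; droplet/cell object ratio) in oleic acid-fed (400 uM added) Drosophila S3 cells treated with a concentration series. 20 uM Triacsin C defined 100% inhibition.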
# % is scaled to controls: 0 for no effect and ±100 for the full control effect; potency is read from the fitted curve at half-maximal effect.
SMILES,"lipid storage change, negative = inhibition",Potency,outcome
CCOC(=O)Cn1cc(/C=N/NC(=O)CC#N)c2ccccc21,inconclusive: 3.3%,,
Cc1csc(NC(=O)c2cc(C)nc3ccccc23)n1,inconclusive: -21.1%,,
CC(C)Sc1ccccc1C(=O)Nc1ccc2c(c1)n(C)c(=O)n2C,inconclusive: -14.6%,,
CCC(=O)c1cn(CCOc2ccccc2OC)c2ccccc12,inconclusive: 10.4%,,
O=C(COc1ccc(/C=N/NC(=O)C(=O)N2CCCCCC2)cc1)Nc1ccccc1Cl,inconclusive: -27.8%,,
O=C(Nn1cnnc1)c1ccc(Cl)cc1,inconclusive: -17.1%,,
COc1cc(OC)cc(C(=O)Nc2nc(-c3ccccc3)c(-c3ccccc3)o2)c1,inconclusive: -29.8%,,
O=C(NCc1ccccc1CN1CCCC1)c1cc2ccccc2o1,inconclusive: -24.5%,,
CC1=CC(C/C(C)=C/COc2ccc3ccc(=O)oc3c2)OC1=O (stereo not drawn),inconclusive: 12.4%,,
N#CCc1c(C#N)c(N)nc(Nc2ccccc2)c1C#N,inconclusive: 21.9%,,
COc1cccc(C2=NOC(C(=O)NCc3ccccn3)C2)c1 (stereo not drawn),inconclusive: 7.51%,,
COc1ccccc1OCCNC(=O)Cc1ccc(S(=O)(=O)N2CCOCC2)s1,,"inconclusive: 0.0046 µM [activator, full curve, poor fit]",
Cc1ccc(S(=O)(=O)CC(=O)N(CCCN2CCOCC2)c2nc3c(F)cccc3s2)cc1,inconclusive,,
Cc1ccc(S(=O)(=O)Nc2ccc3c(c2)nc(CCN2CCN(c4ccccn4)CC2)n3C)cc1,,active: 16.4 µM,
Cc1nn2cc(-c3ccc(Cl)cc3)cnc2c1Br,,"inconclusive: 29.1 µM [cytotoxic, partial curve, poor fit]",
CC(C)(C)NC(=O)COc1ccc2oc3c(c2c1)CCCC3,inconclusive: -36%,,
CN(c1ccc(F)cc1)S(=O)(=O)c1ccc(Cl)c(C(=O)Nc2ccncc2)c1,,"inconclusive: 9.2 µM [activator, partial curve]",
CCc1nc(NCCCn2ccnc2)c2oc3ccccc3c2n1,,"inconclusive: 0.326 µM [activator, full curve]",
CN(CC(=O)N1CCCC1)S(=O)(=O)c1ccc(Cl)cc1,inconclusive: -28.8%,,
O=C(CSc1nnc(-c2cccnc2)n1Cc1ccco1)N1CCc2ccccc21,inconclusive: 7.38%,,
CSc1nc2nccc(/C=C\c3ccccc3)n2n1,,"inconclusive: 18.4 µM [cytotoxic, single point]",
Cc1ccccc1OCCn1cc(C(=O)C(=O)N2CCOCC2)c2ccccc21,inconclusive: 5.83%,,
C=CCSC1=N/C(=C\c2sccc2C)C(=O)S1,,"inconclusive: 29.1 µM [activator, single point]",
CN(C)/C=C(\C#N)C(=O)c1cccc(Oc2ccc(Br)cc2)c1,,"inconclusive: 29.1 µM [falling, single point]",
O=C(COc1ccc(F)cc1)Nc1ccc(-n2cnnn2)cc1,,"inconclusive: 25.9 µM [rising, single point]",
CSc1ccc(Cl)c(C(=O)Nc2ccc(C)cn2)c1,inconclusive: 19.8%,,

# Rewritten tab-delimited: 4 of the compounds above.
SMILES	lipid storage change, negative = inhibition	Potency	outcome
Cc1ccc(S(=O)(=O)Nc2ccc3c(c2)nc(CCN2CCN(c4ccccn4)CC2)n3C)cc1		active: 16.4 µM	
Cc1nn2cc(-c3ccc(Cl)cc3)cnc2c1Br		inconclusive: 29.1 µM [cytotoxic, partial curve, poor fit]	
CC(C)(C)NC(=O)COc1ccc2oc3c(c2c1)CCCC3	inconclusive: -36%		
CN(c1ccc(F)cc1)S(=O)(=O)c1ccc(Cl)c(C(=O)Nc2ccncc2)c1		inconclusive: 9.2 µM [activator, partial curve]	

# (list continues)

SMILES,"lipid storage change, negative = inhibition",Potency,outcome
Cc1nccnc1Sc1ccccc1,inconclusive: -18.7%,,
CCCOc1ccc(C(=O)N2CCCC2C(=O)O)cc1 (stereo not drawn),inconclusive: -20.9%,,
Cc1csc(NC(=O)c2ccc[nH]c2=O)n1,,"inconclusive: 29.1 µM [activator, single point]",
CCCCOc1ccc(C(=O)N/C(=C/C=C/c2ccccc2)C(=O)O)cc1,,"inconclusive: 29.1 µM [rising, single point]",
COc1ccc(NC(=O)NN2CCN(C)CC2)cc1OC,,"inconclusive: 6.51 µM [activator, single point]",
O=C(O)c1cc(S(=O)(=O)N(Cc2ccccc2)c2ccccc2)ccc1Cl,inconclusive: 1.18%,,
O=C(CCc1ccccc1)NNC(=O)Nc1ccccc1,inconclusive: 0.735%,,
CC(=O)N1CCN(CC(=O)Nc2cc(F)ccc2C)CC1,,"inconclusive: 0.0073 µM [activator, full curve, poor fit]",
COc1cc(/C=C(\C#N)C(=O)Nc2ccc3ccccc3c2)c([N+](=O)[O-])cc1OC,,"inconclusive: 2.06 µM [activator, single point]",
O=C(NC1=NCCS1)c1ccccc1OCc1ccc(F)cc1,inconclusive: 33.2%,,
Cc1cc(C)n(C(=O)Cn2nc(C)c(Br)c2C)n1,,"inconclusive: 4.61 µM [falling, single point]",
O=C(NNC(=O)c1ccc(NC(=O)c2ccccc2)cc1)c1ccc(F)cc1,inconclusive: 0.522%,,
c1ccc(CCCN2CCOCC2)cc1,inactive: 15.4%,,
CC(=O)Nc1cccc(NC(=O)CSc2ccc(-c3ccco3)nn2)c1,inconclusive: 8.39%,,
S=C(NCCc1ccccn1)NC1CC2CCC1C2 (stereo not drawn),inconclusive: -9.65%,,
COc1ccc(C2CC(=O)C(C=NCCN3CCNCC3)=C(O)C2)cc1OC (stereo not drawn),,"inconclusive: 0.13 µM [falling, full curve]",
O=C1C(C2=NC(C(=O)O)C3C(=O)N(c4ccccc4)C(=O)C23)=C(O)c2ccccc21 (stereo not drawn),inconclusive: 70.4%,,
O=C(NC1CC2CCCC(C1)N2C(=O)Nc1ccccc1)c1ccncc1 (stereo not drawn),,,inactive [at 46.1 µM]
Cn1ncc(Br)c1C(=O)N1CCCCCC1,inconclusive: 20.1%,,
Cc1ccc2c(c1)C(=O)CC(O)(C(F)F)O2 (stereo not drawn),inconclusive: 15.8%,,
CCOc1cc(/C=N/N=C/c2ccc(O)c(OCC)c2)ccc1O,inconclusive: -24.8%,,
Cc1cccc(NC(=O)c2nc[nH]c2C(=O)NCC(=O)OCc2ccccc2)c1,,"inconclusive: 29.1 µM [activator, single point]",
COc1ccc2c(c1)c(=O)oc1cc(OCC(=O)N3CCCC(C)C3)ccc12 (stereo not drawn),,"inconclusive: 29.1 µM [rising, single point]",
C=CCn1c(SCC(=O)NC2CCCC2)nnc1-c1cccnc1,inconclusive: 3.17%,,
O=C(Nc1ccnn1C1CCN(CC2CC=CCC2)CC1)c1ccccc1 (stereo not drawn),,"inconclusive: 0.0046 µM [activator, full curve, poor fit]",
C/C(=N\NC(=O)c1c(Cl)c(C)nn1C)c1ccc(NC(=O)c2ccncc2)cc1,inconclusive: 107%,,

# 2 compounds drawn at random from the list so far, as already listed:
SMILES,"lipid storage change, negative = inhibition",Potency,outcome
COc1ccc2c(c1)c(=O)oc1cc(OCC(=O)N3CCCC(C)C3)ccc12 (stereo not drawn),,"inconclusive: 29.1 µM [rising, single point]",
CCOc1cc(/C=N/N=C/c2ccc(O)c(OCC)c2)ccc1O,inconclusive: -24.8%,,

# Next part

SMILES,"lipid storage change, negative = inhibition",Potency,outcome
Fc1ccc(CSc2nnc(-c3cccs3)o2)cc1,,"inconclusive: 0.146 µM [rising, full curve, poor fit]",
CN(C)C(=O)COc1ccc2ccc(=O)oc2c1,inconclusive: 36.4%,,
COCCN1Cc2cccc(C(=O)Nc3ccccc3OC)c2C1=O,,"inconclusive: 4.61 µM [activator, full curve, poor fit]",
CSc1ccc(/C=C/C(=O)NC(=O)c2ccccc2O)cc1,inconclusive: -47.2%,,
Cc1ccc(NC(=S)Nc2ccc(Cl)c(Cl)c2)c(OC(F)F)c1,,"inconclusive: 29.1 µM [cytotoxic, single point]",
O=C(Nc1ccnn1C1CCN(C(=O)c2cnsn2)CC1)c1cccc(F)c1,inconclusive: -21.4%,,
CCCc1cc(=O)oc2c(C)c(O[C@@H]3O[C@H](CO)[C@@H](O)[C@H](O)[C@H]3O)ccc12,inconclusive: -55.5%,,
Cc1ccccc1N1CCN(c2ncnc3scc(-c4cccs4)c23)CC1,inconclusive: 13.5%,,
COc1ccc([C@@H]2[C@@H]3C(=O)N(C(C)(C)C)C(=O)[C@@H]3[C@]3(Cc4ccccc4)C(=O)N(c4ccccc4)C(=O)N23)cc1,inconclusive: 15.5%,,
COCc1c(C(=O)NC2CCCCCC2)oc2ccccc12,,"inconclusive: 0.461 µM [rising, full curve]",
Cc1cc(C)n(CCCNC(=O)c2ccco2)n1,,"inconclusive: 0.116 µM [activator, full curve, poor fit]",
NC(=O)COc1ccc(-c2noc(COc3ccccc3[N+](=O)[O-])n2)cc1,inconclusive: 35.7%,,
CC12CCC(C(=O)NCc3ccccc3)(OC1=O)C2(C)C (stereo not drawn),,,inactive [at 46.1 µM]
COc1ccc(NC(=S)Nc2cc(S(=O)(=O)N3CCCCC3)ccc2OC)cc1,inconclusive: 17.3%,,
CSCC[C@@H](Nc1nc(-c2ccccc2)nc2c1oc1ccccc12)C(=O)O,inconclusive: -40.6%,,
O=C(/C=C/c1ccccc1)NCC1(c2ccccc2)CCOCC1,inconclusive: 34.3%,,
FC(F)(F)c1cnc2c(-c3ccccc3)n[nH]c2c1,inconclusive: 1.11%,,
Cc1ccc(S(=O)(=O)N2CCN(c3ncnc4sccc34)CC2)cc1,,"inconclusive: 16.4 µM [falling, partial curve]",
O=C(CSc1cn(CCNC(=O)c2ccccc2)c2ccccc12)NCc1ccco1,,"inconclusive: 0.517 µM [activator, full curve]",
O=C(COC(=O)C1(c2cccc(F)c2)CCCC1)NCc1ccc2c(c1)OCO2,,"inconclusive: 23.1 µM [falling, single point]",
O=C(NCC(=O)N1CCC2(CC1)NCCc1[nH]cnc12)c1ccc2ccccc2c1,inconclusive: -14.7%,,
CC(C)CN1CCN(Cc2cc3ccccc3[nH]2)CC1CCO (stereo not drawn),,"inconclusive: 6.51 µM [falling, single point]",
Cc1ccc(C)c(NC(=O)CCN2CCc3ccccc3C2)c1,,"inconclusive: 0.092 µM [activator, full curve, poor fit]",
C=CCNS(=O)(=O)c1ccc(OCC(=O)OCC)cc1,inconclusive: -45.8%,,
Cc1ccc(C2/C(=C(\O)c3cnn(-c4ccccc4)c3C)C(=O)C(=O)N2CCN(C)C)o1 (stereo not drawn),inconclusive: -41.6%,,
O=C(Cc1c[nH]c2ccccc12)NCc1ccc(Cl)cc1Cl,inconclusive: 24.1%,,
